From patent US20190367605A1 (AstraZeneca / MedImmune, published 2019) come the findings set out here.

These are yes or no findings as the source states them, for the method shown. Some entries that bind do so weakly or less than the wild type.

For assay [1], the target named is T1, cynomolgus monkey ASCT2 (cynomolgus monkey (Macaca fascicularis)) (UniProt G7PXZ3).
T1 sequence: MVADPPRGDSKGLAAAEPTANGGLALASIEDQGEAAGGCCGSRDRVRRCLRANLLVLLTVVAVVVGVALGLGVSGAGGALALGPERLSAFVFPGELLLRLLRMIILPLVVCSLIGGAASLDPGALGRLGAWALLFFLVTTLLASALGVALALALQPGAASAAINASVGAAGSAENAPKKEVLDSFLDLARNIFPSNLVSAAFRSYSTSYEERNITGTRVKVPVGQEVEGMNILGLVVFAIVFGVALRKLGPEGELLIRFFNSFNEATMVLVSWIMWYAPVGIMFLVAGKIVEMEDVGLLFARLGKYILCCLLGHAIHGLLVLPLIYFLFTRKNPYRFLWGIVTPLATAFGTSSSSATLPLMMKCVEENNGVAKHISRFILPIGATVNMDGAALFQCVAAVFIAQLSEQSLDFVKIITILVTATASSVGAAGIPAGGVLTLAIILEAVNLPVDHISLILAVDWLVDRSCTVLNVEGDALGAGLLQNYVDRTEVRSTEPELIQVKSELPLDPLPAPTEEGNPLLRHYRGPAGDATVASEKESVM
Description: flow cytometry on CHO cells expressing CyASCT2. For orientation: A flow cytometer gives signals particle by particle.

For assay [2], the target named is T2, human ASCT2 (system ASC amino acid transporter 2, SLC1A5) (human) (UniProt Q15758).
T2 sequence (looked up): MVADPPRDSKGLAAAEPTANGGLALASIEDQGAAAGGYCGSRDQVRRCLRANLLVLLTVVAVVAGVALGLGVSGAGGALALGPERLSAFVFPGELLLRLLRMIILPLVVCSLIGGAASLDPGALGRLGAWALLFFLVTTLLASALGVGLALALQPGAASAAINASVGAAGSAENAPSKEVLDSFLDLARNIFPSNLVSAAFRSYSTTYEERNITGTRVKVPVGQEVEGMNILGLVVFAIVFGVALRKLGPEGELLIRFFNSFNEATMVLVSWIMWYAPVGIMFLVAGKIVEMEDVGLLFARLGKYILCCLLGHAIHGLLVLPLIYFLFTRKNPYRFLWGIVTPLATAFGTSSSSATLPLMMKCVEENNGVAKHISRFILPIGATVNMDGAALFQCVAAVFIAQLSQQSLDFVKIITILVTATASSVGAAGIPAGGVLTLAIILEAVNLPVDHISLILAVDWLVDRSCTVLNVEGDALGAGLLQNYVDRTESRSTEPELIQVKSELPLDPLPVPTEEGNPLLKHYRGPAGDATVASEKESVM
The assay can be described thus: flow cytometry on SKMEL-2 cells with shRNA knockdown.

The target in assay [3] is T2, human ASCT2 (system ASC amino acid transporter 2, SLC1A5) (human). The assay can be described thus: flow cytometry on WiDr cells and CHO cells expressing HuASCT2.
Assay [4] has the same target. The assay can be described thus: flow cytometry on WiDr cells with ASCT2 shRNA or non-target shRNA.

B1: anti-ASCT2 antibody 17c10 (original, non-germlined, parental) (antibody, V domains shown)
VH: QVQLQQWGAGLLKPSETLSLTCAVYGGSFSGYYWSWIRQPPGKGLEWIGEIHHSGGANYNPSLKSRVTISVDTSKNQFSLKLTSVTAADTAVYYCARGQGKNWHYDYFDYWGQGTLVTVSS
VL: DIQMTQSPSTLSTSVGDRVTLTCRASQSIRSWLAWYQQNPGKAPKLLIYKASILKIGVPSRFSGSGSGTDFTLTITSLQPDDFATYYCQQYYSYSRTFGQGTKVEIK
notes: also called 17c10 parental antibody; ASCT2 mAb 17c10
Turning to B1, the binding result in assay [1], in assay [2], in assay [3] and in assay [4] was “binds” throughout.

B2: anti-ASCT2 antibody 1e8 (original) (antibody, V domains shown)
VH: QVQLQQWGAGLLKPSETLSLTCAVYGGSFSGYYWSWIPQPPGKGVEWIGEINHSGSTNYNPSLKSRVTISSDTSKNQFSLKLTSVTAADTAVYYCARGQGKNWNYDYFDYWGQGTLVTVSS
VL: DIQMTQSPSTLSASVGDRVTLTCRASQSIRSWLAWYQQKPGKAPKLLIYKASSLKSGVPSRFSGSGSGTDFTLTISSLQPDDFATYYCQQYYSFSRTFGQGTKVEIK
notes: also called ASCT2 mAb 1e8
For B2, in assay [4], the binding result is recorded as “binds”.

B3: germlined 17c10 antibody (antibody, V domains shown)
VH: QVQLQQWGAGLLKPSETLSLTCAVYGGSFSGYYWSWIRQPPGKGLEWIGEIHHSGGANYNPSLKSRVTISVDTSKNQFSLKLSSVTAADTAVYYCARGQGKNWHYDYFDYWGQGTLVTVSS
VL: DIQMTQSPSTLSASVGDRVTITCRASQSIRSWLAWYQQKPGKAPKLLIYKASILKIGVPSRFSGSGSGTEFTLTISSLQPDDFATYYCQQYYSYSRTFGQGTKVEIK
notes: also called 17c10 germlined antibody
In the case of B3, in assay [1], the binding result is reported as “binds”.
